Assay results from publication PMC11540318.

Chains of the proteins cited; added tags and fusions are not shown.
UniProt P49657: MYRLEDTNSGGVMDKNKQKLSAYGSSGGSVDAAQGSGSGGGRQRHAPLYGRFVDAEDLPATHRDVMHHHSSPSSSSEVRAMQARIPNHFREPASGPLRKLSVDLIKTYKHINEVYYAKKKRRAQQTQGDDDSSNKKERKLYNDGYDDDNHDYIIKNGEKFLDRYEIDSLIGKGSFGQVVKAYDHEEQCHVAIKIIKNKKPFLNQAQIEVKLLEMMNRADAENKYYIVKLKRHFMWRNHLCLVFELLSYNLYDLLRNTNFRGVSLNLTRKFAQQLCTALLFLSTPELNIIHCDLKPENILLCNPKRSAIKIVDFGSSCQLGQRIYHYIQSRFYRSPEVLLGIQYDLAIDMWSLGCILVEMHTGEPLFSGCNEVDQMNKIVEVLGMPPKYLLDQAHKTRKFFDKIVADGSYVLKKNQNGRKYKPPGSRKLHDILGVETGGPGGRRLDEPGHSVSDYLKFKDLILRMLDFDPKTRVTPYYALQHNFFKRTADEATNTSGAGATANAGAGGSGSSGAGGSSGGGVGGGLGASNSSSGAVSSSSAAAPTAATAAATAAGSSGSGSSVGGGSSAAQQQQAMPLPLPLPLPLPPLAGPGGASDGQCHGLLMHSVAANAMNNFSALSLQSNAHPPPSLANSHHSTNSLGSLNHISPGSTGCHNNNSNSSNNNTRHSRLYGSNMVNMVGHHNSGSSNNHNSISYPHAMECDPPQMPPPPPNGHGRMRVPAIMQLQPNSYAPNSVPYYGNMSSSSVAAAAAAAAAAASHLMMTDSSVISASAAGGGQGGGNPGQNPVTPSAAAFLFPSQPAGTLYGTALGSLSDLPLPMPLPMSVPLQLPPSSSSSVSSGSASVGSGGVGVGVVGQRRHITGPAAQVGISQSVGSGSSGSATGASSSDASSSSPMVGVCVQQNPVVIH

Target: Mnb-TagRFP-T (Minibrain, endogenously tagged) (Drosophila (endogenous in embryos)) (UniProt P49657)
Test: affinity purification with mass spectrometry; Lysate of embryos of the Mnb-TagRFP-T line (yw as control) on RFP-trap agarose beads, 2 h at 4°C, lysis buffer with 0.5% IGEPAL, 125 mM NaCl, pH 7.5; nanoLC-MS/MS; SAINT score above 0.8 counted as interactor

binding: binds
B1: Ral interacting protein (Rlip), endogenous (protein, UniProt Q9VDG2 1-625)
chain: MDFDSPEEKEFPGLYASEAADAKSRKSKEESDFSEDHDHSKKDLLIGRRKDKKEKGKDRGYAALEGESSPEEELDTKSPSKSKKSKTFKFTSSKSKEKREKSRDKSEKDSKHAEEEPSVSHKVKEKERDKEKDRDEPKKKDKEEKRKEKDKKADKKDKKDKKSKQLSQQQDDVSAAEEVLALGYPVFGVSVSLATERSRCHDGVDIPLVVRDCIDFLQDHLKCEQIYKIEPIKTRLMHFKRLYNNREHDSAVDELNLPTACSLLKLFLRELPEPLLTTDLVARFEEVASHPKVTTQQAELQQLLEQLPKCNRTLLAWVLLHFDAVIQQERHNKLNAQSLAMLLSPTLQMSHRLMVALLCHCNNLFADVQLIKYVPPLTSTSPKLPDTPEDIQTELRKQDSLLSQIHSEMNAGFITKKREEQLWEVQRIITQLKRKLRTFEKKQEKTAEEVDNSSSAPPAVASEDTTDSKPAGTPAVSTNNSISQEEPKTDTLTPKDAPNDFTIDPSTGFILLPKSNPHRENLLRLQIEYDELMEWQNELKARIVAERNEVYRLKQLYEQQSINSQMASLASGSQAPPESDYERIIEHYTRENALLEHKKNMLGMELKEERRACIALQVELRLQQF

No constants are given. Whether binding was seen depends on the method and setting. Binding seen in cells or lysates may run through a third protein. A yes stands for co-enrichment or nearness to the bait. Other partners may have been found.
